A word on the AC50: it is the midpoint of the concentration-response curve, whichever way the signal moves.

Ten compounds from PubChem BioAssay (NCATS) can be followed below.

“And” between values parts separate entries of the source, which are not always exact repeats. Identical values can stand only once. The list shows a part of the results. Further columns of the screen follow, without active or inactive calls. For some assays here: The list favours compounds with an active or inconclusive main result. The note in brackets gives the kind of curve behind each potency; many fits are weak.

The nature of test [1]: qHTS Assay for Inhibitors of PDE-IV (AID 607). Particulars: HEK293 ACTOne CNG channel cells, membrane potential fluorescence; measured here: parental cell counter-screen. In a few lines:
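HEK293 ACTOne cells with CNG channel (1000/well), endogenous PDE4; membrane potential dye, compounds up to 22.9 uM final. Fluorescence Ex 535/Em 590; RO 20-1724 (100 uM final) as reference.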

Test [2] can be described thus: qHTS Assay for Lipid Storage Modulators (AID 1519). Conditions: Drosophila S3 cells, BODIPY lipid droplet/cell ratio, laser cytometry, cells loaded with oleic acid. The procedure, abridged:
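Cells seeded at 5,000 per well were treated with compounds over a concentration series and loaded with oleic acid (400 uM, as added). Lipid droplet fluorescence (488 nm excitation, 500-530 nm channel) was read by laser-scanning cytometry and normalized to 20 uM Triacsin C.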
(Quantitative high-throughput screening tests each substance at several concentrations.)

Test [3] in a line: qHTS for identification of novel therapeutic agents for treatment of microphthalmiaassociated transcription factor (MiT) renal cell carcinoma (RCC) (AID 1963991). Particulars: CellTiter-Glo, 48 h; for z-score: stronger effect = lower value. The procedure, abridged:
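Three TFE3-fusion RCC lines (UOK109, UOK124, UOK145), 500 cells/well in complete medium, were treated with MIPE 4.0 compounds for 48 hours at 37 C. Viability was by CellTiter-Glo luminescence, normalized to DMSO (100%) and empty wells (0%); curves fitted over 11 concentrations.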

Test [4] is described as follows: qHTS Validation Assay to Find Inhibitors of Chronic Active B-Cell Receptor Signaling (AID 485345). Particulars: ABC-DLBCL cells, chronic BCR signaling reporter; measured here: CBR control luciferase (viability counter). The procedure, abridged:
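Read-out: ratio of filter-corrected green (IkappaBalpha fusion) to red (native) luciferase signal in doxycycline-induced TMD8 cells after 4 h at 37C. Titration spanned 46 uM–3 nM; Data were normalised to basal cells and 10 uM MG-132 wells.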

The nature of test [5]: qHTS drug screen for cell cycle checkpoint inhibitors in PARPi-resistant BRCA-mutant ovarian cancer cell lines. (AID 1963452). Conditions: PEO1/OlaR viability, CellTiter-Glo luminescence, 96 h. The procedure, abridged: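 PEO1, PEO4 and PEO1/OlaR ovarian cancer cells, 600 per well, exposed 96 h at 37C to a dilution series. Viability read by CellTiter-Glo luminescence, normalized to DMSO and empty wells; activity summarized as Z-AUC.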

A short description of test [6]: qHTS Assay for Modulators of Human Peripheral Myelin Protein 22 (PMP22) Expression/Activity (AID 1967). Particulars: Cell-based PMP22 reporter, dual-color luciferase ratio. The procedure, abridged: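 MSC80 mouse Schwann cells stably carrying Pmp22 promoter–green click beetle luciferase plus EF-alpha–red luciferase control were dosed for 24h at 37 °C. Dual-colour luminescence was filter-overlap corrected; %Activity came from green/red ratio versus untreated cells.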

Setting [7] is: measured here: cell count channel max response.
The mark [8] stands for this setting: measured here: cell number channel AC50.
Where [9] appears, read: measured here: lipid (BODIPY) channel AC50.
Setting [10] is: measured here: lipid channel max response.
The mark [11] stands for this setting: TFE3-RCC UOK109 viability, measured here: UOK109 Z-AUC.
Setting [12] is: TFE3-RCC viability, measured here: UOK124 Z-AUC.
Setting [13] is: TFE3-RCC viability, measured here: UOK145 Z-AUC.
[14] abbreviates: TFE3-RCC viability, measured here: UOK145 cell viability.
[15] abbreviates: TFE3-RCC viability, measured here: UOK124 cell viability.
Setting [16] is: measured here: red reporter channel AC50, EF-alpha promoter control reporter in MSC80 mouse Schwann cells.
Setting [17] is: measured here: green reporter channel AC50, mouse Pmp22 promoter in mouse Schwann cells.

On to `CCCCC(C=O)NC(=O)C(CC(C)C)NC(=O)OCc1ccccc1` (centres undefined), for which the concentration at half-maximal activity (AC50) in test [1] is 12.6 µM [rising, single point]; in test [2] (setting [8]), 12.6 µM [rising, full curve, poor fit]; in test [2] (setting [9]), 14.1 µM [rising, full curve, poor fit]; in test [3] (setting [14]), 3.72 µM [falling, partial curve, poor fit]. For the same compound, the max response in test [2] (setting [7]) was 42.3%; in test [2] (setting [10]) it was 46.2%. The results for the z-score in test [3] (setting [11]), in test [3] (setting [12]) and in test [3] (setting [13]) were 0.241, 0.269 and -0.106, respectively.
In the case of `O=C1N(c2ccccc2)c2ccccc2C1(Cc1ccncc1)Cc1ccncc1`, the max response in test [2] (setting [7]) was 94.5% and 8.11%; in test [2] (setting [10]), 125% and 10.3%. The half-maximal activity concentration (AC50) in test [2] (setting [8]) was 3.16 µM [rising, full curve] and 794 nM [falling, full curve, poor fit]; in test [2] (setting [9]), 3.16 µM [rising, full curve] and 794 nM [falling, full curve, poor fit]; in test [4], 18.4 µM [falling, single point]; in test [3] (setting [14]), 20.9 µM [falling, partial curve, poor fit]. The z-score in test [3] (setting [11]) turned out to be 0.534; in test [3] (setting [12]), 0.628; in test [3] (setting [13]), 0.586.
Regarding `CC1=CC(=O)c2ccccc2C1=O`, the max response in test [2] (setting [7]) is -96.4% and -31.7%; in test [2] (setting [10]), -109% and -64.6%. Also, the concentration at half-maximal activity (AC50) in test [2] (setting [8]) is 15.8 µM [falling, single point] and 5.62 µM [falling, partial curve, poor fit]; in test [2] (setting [9]) it was 15.8 µM [falling, single point]; in test [5] (measured here: PEO4 viability) it was 15.5 µM [falling, partial curve, poor fit]; in test [3] (setting [15]) it was 20.9 µM [falling, partial curve]; in test [3] (setting [14]), 33.2 µM [falling, single point]. The z-score in test [3] (setting [11]) is 0.665; in test [3] (setting [12]), 0.327; in test [3] (setting [13]), -0.403.
Take `NNCCc1ccccc1`: the figures for the max response in test [2] (setting [7]) and in test [2] (setting [10]) were -17.3% and -13.5%, respectively. The half-maximal activity concentration (AC50) is 1.58 µM [falling, full curve, poor fit] in test [2] (setting [8]); 1.58 µM [falling, full curve, poor fit] in test [2] (setting [9]); 95.3 µM [falling, single point] in test [6] (setting [16]); 29.1 µM [falling, single point] in test [4]; 14.8 µM [falling, partial curve] in test [3] (setting [14]). Moreover, the z-score in test [3] (setting [11]) was -0.18; in test [3] (setting [12]), 0.83; in test [3] (setting [13]) it was -0.121.
As to `O=C(c1ccccc1)c1ccc2n1CCC2C(=O)O` (centres undefined), the values for the max response in test [2] (setting [7]) and in test [2] (setting [10]) were 63.3% and 66.2%, respectively. Also, the AC50 was 35.5 µM [rising, partial curve, poor fit] in test [2] (setting [8]); 35.5 µM [rising, partial curve, poor fit] in test [2] (setting [9]); 20.9 µM [falling, partial curve] in test [3] (setting [14]). The results for the z-score in test [3] (setting [11]), in test [3] (setting [12]) and in test [3] (setting [13]) were 0.294, 0.758 and 0.0131, respectively.
`CN1CCN2c3ccccc3Cc3ccccc3C2C1` (centres undefined): the max response stood at 47.6% in test [2] (setting [7]) and 48.5% in test [2] (setting [10]). Moreover, the half-maximal activity concentration (AC50) is 35.5 µM [rising, single point] in test [2] (setting [8]); 35.5 µM [rising, single point] in test [2] (setting [9]); 75.7 µM [falling, partial curve, poor fit] in test [6] (setting [17]); 84.9 µM [falling, single point] in test [6] (setting [16]); 23.5 µM [falling, single point] in test [3] (setting [15]); 14.8 µM [falling, partial curve, poor fit] in test [3] (setting [14]). In addition, the figures for the z-score in test [3] (setting [11]), in test [3] (setting [12]) and in test [3] (setting [13]) were -0.049, 0.225 and 0.362, respectively.
Regarding `Clc1ccc(Cn2c(CN3CCCC3)nc3ccccc32)cc1`, the max response in test [2] (setting [7]) came to 67.8%; in test [2] (setting [10]), 73.2%. Moreover, the AC50 in test [2] (setting [8]) is 2.82 µM [falling, full curve, poor fit]; in test [2] (setting [9]), 3.16 µM [falling, full curve, poor fit]; in test [6] (setting [17]) it was 84.9 µM [falling, single point]; in test [6] (setting [16]) it was 75.7 µM [falling, partial curve, poor fit]; in test [5] (measured here: PEO1 parental viability) it was 19.5 µM [falling, single point].
For the compound `COC(=O)C1=C(C)NC(C)=C(C(=O)OC(C)C)C1c1cccc2nonc12` (centres undefined), the max response in test [2] (setting [7]) is 79.9%; in test [2] (setting [10]), 105%. For the same compound, the AC50 is 28.2 µM [rising, partial curve, poor fit] in test [2] (setting [8]); 31.6 µM [rising, partial curve] in test [2] (setting [9]); 13.2 µM [falling, partial curve] in test [3] (setting [14]). The z-score in test [3] (setting [11]) was 0.485; in test [3] (setting [12]) it was 0.139; in test [3] (setting [13]), -0.215.
As to `COc1ccc([C@@H]2CNC(=O)C2)cc1OC1CCCC1`, the max response in test [2] (setting [7]) was 31% and 34.5% and 99.6%; in test [2] (setting [10]), 49.5% and 44.1% and 116%. Further, the AC50 in test [2] (setting [8]) was 28.2 µM [rising, single point] and 15.8 µM [rising, partial curve, poor fit] and 39.8 µM [rising, single point]; in test [2] (setting [9]), 31.6 µM [rising, single point] and 28.2 µM [rising, partial curve, poor fit] and 39.8 µM [rising, partial curve, poor fit]; in test [3] (setting [15]) it was 37.2 µM [falling, single point]; in test [3] (setting [14]), 5.26 µM [falling, full curve]. For the same compound, the z-score was -0.755 in test [3] (setting [11]), 0.226 in test [3] (setting [12]) and 0.213 in test [3] (setting [13]).
As to `CC(C)NCC(O)c1ccc(NS(C)(=O)=O)cc1` (centres undefined), the max response in test [2] (setting [7]) was 4.01%; in test [2] (setting [10]), 2.95%. The AC50 in test [2] (setting [8]) is 0.112 µM [falling, full curve, poor fit]; in test [2] (setting [9]) it was 0.112 µM [falling, full curve, poor fit]; in test [3] (setting [14]), 13.2 µM [falling, partial curve, poor fit]. The z-score in test [3] (setting [11]) worked out at 0.57; in test [3] (setting [12]), 0.521; in test [3] (setting [13]) it was 1.77.
